Measurements reported in article PMC12378234, “Enzyme-mediated aminoglycoside resistance without target mimicry” (Communications Chemistry, 2025).
Several values for one entry are separate records, joined by “and”; a condition that tells them apart may be missing. Equal entries are not always repeated. Where two headings read alike, the source gives them in different places. This continues a long series; more values of the same kind are listed elsewhere.

Tested on: BL21(DE3) E. coli transformed with pUCP18 vector expressing untagged AAC(3)-Ia
Format: cell-based
Description: Ten milliliters of LB containing […] ampicillin were inoculated from glycerol stocks of transformed BL21(DE3) E. coli containing genes expressing the proteins of interest in pUCP18 vectors. These cultures were incubated at 37 °C with 200 rpm agitation for 16 h. Turbidity was measured through OD600 with a NanoDrop OneC Spectrometer (Thermo Scientific). From the initial cultures, secondary 10 mL cultures were prepared with OD600 values of 0.1. These cultures were grown until OD600 values of 0.4–0.6 were reached and diluted to bring all cultures to the same OD600. Cultures were induced with 1 mM Isopropyl β-D-1-thiogalactopyranoside and incubated for 4 h. Two microliters of culture was added to 198 μL of LB with an appropriate aminoglycoside titration concentration. Each titration point was repeated n = 4 times. The formulated 96-well culture plate (Sarstedt) had OD600 measured on a 20-min interval over 17 h using a BioTek Cytation 5 Cell Imaging Multimode Reader, incubating at 37 °C with 282 cpm orbital agitation. Experiments were repeated with fresh cultures on separate days to ensure consistent trends. Data was analyzed in Microsoft Excel and GraphPad5. The remainder of the culture immediately had its RNA isolated for qPCR experiments.

CN[C@@H]1[C@@H](O)[C@@H](O[C@@H]2[C@@H](O)[C@H](O[C@H]3OC(CN)=CC[C@H]3N)[C@@H](N)C[C@H]2N)OC[C@]1(C)O [Sisomicin, sisomicin]
OD600 growth curve (6 ug/mL Sisomicin, time point 06:39:10): 0.107 and 0.113 and 0.119 | OD600 growth curve (6 ug/mL Sisomicin, time point 06:59:10): 0.107 and 0.113 and 0.121 and 0.119 | OD600 growth curve (6 ug/mL Sisomicin, time point 07:19:10): 0.107 and 0.113 and 0.121 and 0.118 | OD600 growth curve (6 ug/mL Sisomicin, time point 07:39:10): 0.107 and 0.113 and 0.121 and 0.117 | OD600 growth curve (6 ug/mL Sisomicin, time point 07:59:10): 0.108 and 0.113 and 0.121 and 0.116 | OD600 growth curve (6 ug/mL Sisomicin, time point 08:19:10): 0.108 and 0.113 and 0.121 and 0.114 | OD600 growth curve (6 ug/mL Sisomicin, time point 08:39:10): 0.108 and 0.113 and 0.121 | OD600 growth curve (6 ug/mL Sisomicin, time point 08:59:10): 0.108 and 0.112 and 0.121 and 0.111 | OD600 growth curve (6 ug/mL Sisomicin, time point 09:19:10): 0.108 and 0.111 and 0.12 and 0.11 | OD600 growth curve (6 ug/mL Sisomicin, time point 09:39:10): 0.108 and 0.112 and 0.121 and 0.109 | OD600 growth curve (6 ug/mL Sisomicin, time point 09:59:10): 0.108 and 0.111 and 0.121 | OD600 growth curve (6 ug/mL Sisomicin, time point 10:19:10): 0.108 and 0.11 and 0.12 | OD600 growth curve (6 ug/mL Sisomicin, time point 10:39:10): 0.107 and 0.109 and 0.119 and 0.108 | OD600 growth curve (6 ug/mL Sisomicin, time point 10:59:10): 0.107 and 0.108 and 0.119 | OD600 growth curve (6 ug/mL Sisomicin, time point 11:19:10): 0.106 and 0.107 and 0.119 and 0.108 | OD600 growth curve (6 ug/mL Sisomicin, time point 11:39:10): 0.106 and 0.118 and 0.107 | OD600 growth curve (6 ug/mL Sisomicin, time point 11:59:10): 0.106 and 0.105 and 0.118 | OD600 growth curve (6 ug/mL Sisomicin, time point 12:19:10): 0.105 and 0.104 and 0.116 and 0.106 | OD600 growth curve (6 ug/mL Sisomicin, time point 12:39:10): 0.104 and 0.115 and 0.106 | OD600 growth curve (6 ug/mL Sisomicin, time point 12:59:10): 0.104 and 0.103 and 0.114 and 0.106 | OD600 growth curve (12 ug/mL Sisomicin, time point 00:19:10): 0.101 and 0.102 and 0.103 | OD600 growth curve (12 ug/mL Sisomicin, time point 00:39:10): 0.102 and 0.103 and 0.104 | OD600 growth curve (12 ug/mL Sisomicin, time point 00:59:10): 0.102 and 0.104 and 0.105 | OD600 growth curve (12 ug/mL Sisomicin, time point 01:19:10): 0.102 and 0.105 | OD600 growth curve (12 ug/mL Sisomicin, time point 01:39:10): 0.102 and 0.104 and 0.105 and 0.106 | OD600 growth curve (12 ug/mL Sisomicin, time point 01:59:10): 0.102 and 0.104 and 0.105 and 0.106 | OD600 growth curve (12 ug/mL Sisomicin, time point 02:19:10): 0.102 and 0.104 and 0.105 and 0.106 | OD600 growth curve (12 ug/mL Sisomicin, time point 02:39:10): 0.101 and 0.103 and 0.104 and 0.105 | OD600 growth curve (12 ug/mL Sisomicin, time point 02:59:10): 0.101 and 0.103 and 0.104 and 0.105 | OD600 growth curve (12 ug/mL Sisomicin, time point 03:19:10): 0.101 and 0.103 and 0.105 | OD600 growth curve (12 ug/mL Sisomicin, time point 03:39:10): 0.1 and 0.102 and 0.105 | OD600 growth curve (12 ug/mL Sisomicin, time point 03:59:10): 0.1 and 0.102 and 0.104 | OD600 growth curve (12 ug/mL Sisomicin, time point 04:19:10): 0.099 and 0.101 and 0.102 and 0.104 | OD600 growth curve (12 ug/mL Sisomicin, time point 04:39:10): 0.099 and 0.101 and 0.103 | OD600 growth curve (12 ug/mL Sisomicin, time point 04:59:10): 0.099 and 0.1 and 0.101 and 0.103 | OD600 growth curve (12 ug/mL Sisomicin, time point 05:19:10): 0.099 and 0.1 and 0.102 | OD600 growth curve (12 ug/mL Sisomicin, time point 05:39:10): 0.098 and 0.1 and 0.102 | OD600 growth curve (12 ug/mL Sisomicin, time point 05:59:10): 0.098 and 0.099 and 0.1 and 0.102 | OD600 growth curve (12 ug/mL Sisomicin, time point 06:19:10): 0.098 and 0.099 and 0.101 | OD600 growth curve (12 ug/mL Sisomicin, time point 06:39:10): 0.098 and 0.099 and 0.101 | OD600 growth curve (12 ug/mL Sisomicin, time point 06:59:10): 0.097 and 0.099 and 0.101 | OD600 growth curve (12 ug/mL Sisomicin, time point 07:19:10): 0.097 and 0.099 and 0.101 | OD600 growth curve (12 ug/mL Sisomicin, time point 07:39:10): 0.097 and 0.098 and 0.101 | OD600 growth curve (12 ug/mL Sisomicin, time point 07:59:10): 0.097 and 0.098 and 0.1 | OD600 growth curve (12 ug/mL Sisomicin, time point 08:19:10): 0.097 and 0.098 and 0.1 | OD600 growth curve (12 ug/mL Sisomicin, time point 08:39:10): 0.097 and 0.098 and 0.1 | OD600 growth curve (12 ug/mL Sisomicin, time point 08:59:10): 0.097 and 0.098 and 0.1 | OD600 growth curve (12 ug/mL Sisomicin, time point 09:19:10): 0.096 and 0.098 and 0.1 | OD600 growth curve (12 ug/mL Sisomicin, time point 09:39:10): 0.096 and 0.098 and 0.1 | OD600 growth curve (12 ug/mL Sisomicin, time point 09:59:10): 0.096 and 0.098 and 0.1 | OD600 growth curve (12 ug/mL Sisomicin, time point 10:19:10): 0.096 and 0.097 and 0.1 | OD600 growth curve (12 ug/mL Sisomicin, time point 10:39:10): 0.096 and 0.097 and 0.1 | OD600 growth curve (12 ug/mL Sisomicin, time point 10:59:10): 0.096 and 0.097 and 0.1 | OD600 growth curve (12 ug/mL Sisomicin, time point 11:19:10): 0.096 and 0.097 and 0.1 | OD600 growth curve (12 ug/mL Sisomicin, time point 11:39:10): 0.096 and 0.097 and 0.1 | OD600 growth curve (12 ug/mL Sisomicin, time point 11:59:10): 0.096 and 0.097 and 0.099 | OD600 growth curve (12 ug/mL Sisomicin, time point 12:19:10): 0.096 and 0.097 and 0.099 | OD600 growth curve (12 ug/mL Sisomicin, time point 12:39:10): 0.096 and 0.097 and 0.099 | OD600 growth curve (12 ug/mL Sisomicin, time point 12:59:10): 0.095 and 0.097 and 0.099
